Our source for the binding values is patent publication US20230312713A1.

No constants are given. Whether binding was seen depends on the method and setting. Some entries that bind do so weakly or less than the wild type. Sequences can lack the tags named with a protein.

This experiment addresses T1, His-tagged, recombinant mouse FAP (ab271506, Abcam) (mouse) (UniProt P97321).
T1 sequence (looked up): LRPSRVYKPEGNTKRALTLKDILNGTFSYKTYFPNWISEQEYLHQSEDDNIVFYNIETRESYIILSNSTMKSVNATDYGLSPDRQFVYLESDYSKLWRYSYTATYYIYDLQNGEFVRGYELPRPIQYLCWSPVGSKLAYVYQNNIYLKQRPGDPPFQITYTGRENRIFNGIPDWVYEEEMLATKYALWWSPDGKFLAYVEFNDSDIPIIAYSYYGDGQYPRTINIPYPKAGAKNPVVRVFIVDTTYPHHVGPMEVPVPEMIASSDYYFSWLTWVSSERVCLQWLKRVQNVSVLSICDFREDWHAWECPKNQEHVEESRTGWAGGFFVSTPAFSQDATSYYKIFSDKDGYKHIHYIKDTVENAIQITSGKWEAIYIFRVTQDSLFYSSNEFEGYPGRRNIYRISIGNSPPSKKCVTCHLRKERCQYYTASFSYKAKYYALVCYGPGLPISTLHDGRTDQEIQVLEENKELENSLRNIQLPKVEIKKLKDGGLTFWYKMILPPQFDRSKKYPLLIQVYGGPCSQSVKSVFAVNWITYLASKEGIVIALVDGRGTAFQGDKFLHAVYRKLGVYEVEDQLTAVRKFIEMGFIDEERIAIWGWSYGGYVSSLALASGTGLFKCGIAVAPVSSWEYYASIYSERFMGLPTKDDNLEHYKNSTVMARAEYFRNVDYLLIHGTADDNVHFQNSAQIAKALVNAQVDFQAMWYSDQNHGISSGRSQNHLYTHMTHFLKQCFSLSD
Nature of the experiment: flow cytometry; splenic T cells stained with His-tagged recombinant FAP and anti-His-PE. (In general: Flow cytometry measures light scatter and fluorescence of single cells or particles in a stream.)

B1: FAPCAR (murine-FAPCAR; CAR containing the scFv fragment from mouse-specific FAP monoclonal antibody clone 73.3 with mouse CD3zeta and CD28 cytoplasmic … (protein)
chain: GSQVQLKESGGGLVQPGGSLKLSCAASGFTFSSYGMSWVRQTADKRLELVATTNNNGGVTYYPDSVKGRFTISRDNAKNTLYLQMSSLQSEDTAMYYCARYGYYAMDYWGQGISVTVSSGGGGSGGGGSSGGGSDVLMTQTPLSLPVSLGDQASISCRSSQSIVHSNGNTYLEWYLQKPGQSPKLLIYKVSNRFSGVPDRFSGSGSGTDFTVKISRVEAEDLGVYYCFQGSHVPYTFGGGTKLEIKAAATTTKPVLRTPSPVHPTGTSQPQRPEDCRPRGSVKGTGLDFACDIYIWAPLAGICVALLLSLIITLICYHRSRNSRRNRLLQVTTMNMTPRRPGLTRKPYQPYAPARDFAAYRPRAKFSRSAETAANLQDPNQLYNELNLGRREEYDVLEKKRARDPEMGGKQQRRRNPQEGVYNALQKDKMAEAYSEIGTKGERRRGKGHDGLYQGLSTATKDTYDALHMQTLAPR
Take B1: the binding entry is reported as “binds”.
